The record followed here is US20230203127A1.

These are yes or no findings as the source states them, for the method shown. A result given as binding can be weak or reduced; the word gives no strength.

This experiment deals with HLA-A*02:01 (human). Description: UV peptide-exchange ELISA, exchange yield grade. On the technique in general: An ELISA detects its analyte on a solid surface through an enzyme-linked reagent.
GLLENSPHL [… (SEQ ID NO: 83)]: the binding entry was “binds”.

AMLASQTEA [… (SEQ ID NO: 105)]: the binding entry is on record as “binds”.

For the molecule VLTGQVHEL [… (SEQ ID NO: 80)], the binding result is “binds”.

On to ALDTTRHEL [… (SEQ ID NO: 96)], for which the binding result was “binds”.

Consider SLLEVNEASSV [… (SEQ ID NO: 101)], for which the binding result is recorded as “binds”.

Regarding YLDEVAFML [… (SEQ ID NO: 94)], the binding result is reported as “binds”.

Turning to ILAEEPIYIRV [… (SEQ ID NO: 82)], the binding result is “binds”.

As to RVLPGQAVTGV [… (SEQ ID NO: 107)], the binding result is “binds”.

In the case of QLIEKNWLL [… (SEQ ID NO: 10)], the binding result is “binds”.

In the case of ALYGNVQQV [… (SEQ ID NO: 77)], the binding entry is reported as “binds”.

RLYGYFHDA [… (SEQ ID NO: 93)]: the binding result is reported as “binds”.

YLADTVQKL [… (SEQ ID NO: 103)]: the binding result is “binds”.

Regarding LLLPLELSLA [… (SEQ ID NO: 88)], the binding entry is “binds”.

For the molecule SLFSNIESV [… (SEQ ID NO: 86)], the binding entry is given as “binds”.

Turning to LLPSIFLMV [… (SEQ ID NO: 91)], the binding entry is on record as “binds”.

GLYPVTLVGV [… (SEQ ID NO: 102)]: the binding result is recorded as “binds”.

As for TVLEEIGNRV [… (SEQ ID NO: 79)], the binding result is given as “binds”.

For RLFEEVLGV [… (SEQ ID NO: 92)], the binding result was “binds”.

As for FVQEKIPEL [… (SEQ ID NO: 98)], the binding result is recorded as “binds”.

GLAFLPASV [… (SEQ ID NO: 74)]: the binding entry is on record as “binds”.

For the molecule FIANLPPELKA [… (SEQ ID NO: 108)], the binding entry is “binds”.

ILGSFELQL [… (SEQ ID NO: 109)]: the binding entry is on record as “binds”.

On to LLDPKTIFL [… (SEQ ID NO: 11)], for which the binding entry is “binds”.

With KLFEKSTGL [… (SEQ ID NO: 97)], the binding entry is on record as “binds”.

As to KLLDKPEQFL [… (SEQ ID NO: 85)], the binding entry was “binds”.

With KLIDEDEPLFL [… (SEQ ID NO: 95)], the binding result was “binds”.

SLAETIFIV [… (SEQ ID NO: 89)]: the binding result is on record as “binds”.

With SLITGQDLLSV [… (SEQ ID NO: 9)], the binding entry was “binds”.

FLLEREQLL [… (SEQ ID NO: 84)]: the binding result is given as “binds”.

ILAEEPIYI [… (SEQ ID NO: 81)]: the binding entry was “binds”.

Take FTAEFLEKV [… (SEQ ID NO: 76)]: the binding entry was “binds”.

Consider AILNVDEKNQV [… (SEQ ID NO: 90)], for which the binding result is listed as “binds”.

Turning to ALQSFEFRV [… (SEQ ID NO: 100)], the binding entry is listed as “binds”.

Take ALLDGALQL [… (SEQ ID NO: 75)]: the binding entry was “binds”.

For the molecule TLFGIQLTEA [… (SEQ ID NO: 99)], the binding result was “binds”.

Turning to KLLSLLEEA [… (SEQ ID NO: 87)], the binding result is reported as “binds”.

On to VLLGSVVIFA [… (SEQ ID NO: 106)], for which the binding result is reported as “binds”.
